Counter-ions that a name gives are not always drawn. Some of the results follow. Most values lie at the level of the controls, where differences are scatter.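 A single-replicate pilot screen of approved drugs and clinical or known-target compounds measured melting temperature via differential scanning fluorimetry. Top stabilizing hits raised the melting point by 2 °C or more; negative shifts indicate destabilization.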
Tested on: SARS-CoV-2 main protease (Mpro, nsp5)
Experiment: thermal shift ΔTm of Mpro relative to plate average Tm; higher = stronger thermal stabilization of Mpro (binding)
Conditions: 10 µM; protein concentration 1 µM

SMILES	thermal shift ΔTm of Mpro [°C]
Nc1nc(N)c2nc(-c3ccccc3)c(N)nc2n1 [Triamterene]	0.124
C=C1CC[C@H](O)C/C1=C/C=C1\CCC[C@]2(C)[C@@H]([C@H](C)/C=C/[C@H](C)C(C)C)CC[C@@H]12 [Vitamin D2]	0.28
CCCCOc1ccc(C(=O)CCN2CCCCC2)cc1 [Dyclonine HCl]	0.00206
C=C1C(=O)O[C@H]2[C@H]1CC/C(C)=C/CC[C@@]1(C)O[C@@H]21 [(-)-Parthenolide]	-0.0435
COc1ccc(CCC(=O)Nc2nc3ccc(Cl)cc3s2)cc1OC	-0.0412
COc1ccc(-c2cc3nccn3c(Nc3ncccc3C(N)=O)n2)cc1OC	-0.0532
O=[N+]([O-])c1cn2c(n1)OC[C@@H](OCc1ccc(OC(F)(F)F)cc1)C2	0.0521
Cn1nnc2c(C(N)=O)ncn2c1=O [Temozolomide]	0.109
COc1ccc(CCC(=O)c2c(O)cc(O[C@@H]3O[C@H](CO)[C@@H](O)[C@H](O)[C@H]3O[C@@H]3O[C@@H](C)[C@H](O)[C@@H](O)[C@H]3O)cc2O)cc1O [Neohesperidin dihydrochalcone (Nhdc)]	-0.252
C[C@]12CC[C@H](O)CC1=CC[C@@H]1[C@@H]2CC[C@]2(C)C(c3cccnc3)=CC[C@@H]12 [Abiraterone]	-0.0511
C[C@]12CCC(=O)C=C1C=C[C@@H]1[C@@H]2CC[C@@]2(C)[C@H]1CC[C@@]2(O)CCC(=O)O [Potassium canrenoate]	0.0285
Cn1c(N2CCCCS2(=O)=O)nc(C(=O)NCc2ccc(F)cc2)c(O)c1=O	0.552
CN1CCN(c2ccc(C(=O)Nc3cc(-c4cccc(NS(=O)(=O)c5ccccc5)c4)[nH]n3)cc2)CC1	0.302
O=C(c1ccccc1)c1ccc2nc(NC(=O)c3csc(C4CCN(c5ncnc6ccsc56)CC4)n3)[nH]c2c1	-0.119
CCCCCCCC(=O)c1c(O)cc(O)cc1CC(=O)OCC [Cytosporone B]	-0.0475
CCS(=O)(=O)N1CCN(c2ccc(Nc3ncc(C(N)=O)c(NC4CC4)n3)cc2)CC1	-0.403
CCS(=O)(=O)N1CCN(c2ccc(Nc3ncc(C(N)=O)c(NC4CC4)n3)cc2)CC1 [Cerdulatinib]	0.0981
C[N+](C)(C)CC(O)CC(=O)[O-] (racemic) [DL-Carnitine HCl]	-0.144
CC(=O)NC(CC(C)C)C(=O)O (stereo not drawn) [Acetylleucine]	0.105

Given as a markdown table: part of the list above

| SMILES | thermal shift ΔTm of Mpro [°C] |
| --- | --- |
| COc1ccc(-c2cc3nccn3c(Nc3ncccc3C(N)=O)n2)cc1OC | -0.0532 |
| O=[N+]([O-])c1cn2c(n1)OC[C@@H](OCc1ccc(OC(F)(F)F)cc1)C2 | 0.0521 |
| Cn1nnc2c(C(N)=O)ncn2c1=O [Temozolomide] | 0.109 |
| COc1ccc(CCC(=O)c2c(O)cc(O[C@@H]3O[C@H](CO)[C@@H](O)[C@H](O)[C@H]3O[C@@H]3O[C@@H](C)[C@H](O)[C@@H](O)[C@H]3O)cc2O)cc1O [Neohesperidin dihydrochalcone (Nhdc)] | -0.252 |
| C[C@]12CC[C@H](O)CC1=CC[C@@H]1[C@@H]2CC[C@]2(C)C(c3cccnc3)=CC[C@@H]12 [Abiraterone] | -0.0511 |
| C[C@]12CCC(=O)C=C1C=C[C@@H]1[C@@H]2CC[C@@]2(C)[C@H]1CC[C@@]2(O)CCC(=O)O [Potassium canrenoate] | 0.0285 |
| Cn1c(N2CCCCS2(=O)=O)nc(C(=O)NCc2ccc(F)cc2)c(O)c1=O | 0.552 |
| CN1CCN(c2ccc(C(=O)Nc3cc(-c4cccc(NS(=O)(=O)c5ccccc5)c4)[nH]n3)cc2)CC1 | 0.302 |

(listing goes on)

SMILES	thermal shift ΔTm of Mpro [°C]
C[N+](C)(C)C[C@H](O)CC(=O)[O-] [L-carnitine]	0.189
Cn1cnc(=N)c2[nH]cnc21 [3-Methyladenine]	-0.0241
O=C(/C=C/c1cccnc1)NCCCCC1CCN(C(=O)c2ccccc2)CC1	0.143
NCCc1ccc(O)c(O)c1 [Dopamine HCl]	-1.03
COP(=O)(OC)OC=C(Cl)Cl [Dichlorvos]	0.0892
CC(C)C(Br)C(=O)NC(N)=O (stereo not drawn) [Bromisoval]	0.223
Cc1c(-c2ccc(-c3ccccc3F)cc2)nc2ccc(F)cc2c1C(=O)O [Brequinar]	0.034
FC(F)(F)Oc1ccc2nc(-c3ccc(OCCOCCOc4ccc(-c5nc6ccc(OC(F)(F)F)cc6[nH]5)nc4)cn3)[nH]c2c1	1.36
C=CC(=O)N[C@H]1CCOC[C@H]1Nc1ncc2cc(-c3c(Cl)c(OC)cc(OC)c3Cl)ccc2n1	-0.293
CN(Cc1cc(Br)cc(Br)c1N)C1CCCCC1 [Bromhexine HCl]	0.0267
C[C@H](CS)C(=O)N1CCC[C@H]1C(=O)O [Captopril]	0.0195
Cn1cnc2c(F)c(Nc3ccc(Br)cc3Cl)c(C(=O)NOCCO)cc21 [Selumetinib (AZD6244)]	0.144
Nc1nc(N)c2nc(-c3cccc(O)c3)c(-c3cccc(O)c3)nc2n1	0.407
O=S(=O)(NC1CCCCC1)c1ccc2c(c1)C(=NO)c1cc(S(=O)(=O)NC3CCCCC3)ccc1-2	0.123
COc1ccc(OCc2ccc(COc3c(Cl)cccc3Cl)cc2)c(Cl)c1 [pocapavir]	-0.0716
CN1CCN(C(=O)c2cc3cc(Cl)ccc3[nH]2)CC1	0.0389
COc1c2ccoc2c(OC[C@H]2OC2(C)C)c2oc(=O)ccc12 [Byakangelicol]	0.012
COC(=O)N[C@H](C(=O)N1CC2(CC2)C[C@H]1c1nc(-c2ccc3c(c2)C(F)(F)c2cc(-c4ccc5[nH]c([C@@H]6[C@H]7CC[C@H](C7)N6C(=O)[C@@H](NC(=O)OC)C(C)C)nc5c4)ccc2-3)c[nH]1)C(C)C [Ledipasvir (GS5885)]	0.248
COc1ccc(CNc2nc(N3CCC[C@H]3CO)ncc2C(=O)NCc2ncccn2)cc1Cl [Avanafil]	0.0404

— the supplement of paper PMC8166895
